The values that follow come from publication PMC5349851.

The list shows a part of the results, in another mix than the full data. At the low end of the ranking, values are background and their order means little.

Assay in all cases: SELEX-seq (CSI, HT-SELEX, round 3)
Common to all, as to settings: SELEX-seq: 1x PBS (10 mM phosphate, 137 mM NaCl, 2.7 mM KCl) pH 7.6, 2.5 mM DTT, 50 ng/ul poly dI-dC, 0.1% BSA, 50 nM biotinylated bZIP (1:3 with partner for …); high values mean tight binding; double strand, one strand shown

Experiment [1] deals with T1, CEBPG + CEBPG.
T1 sequence 1: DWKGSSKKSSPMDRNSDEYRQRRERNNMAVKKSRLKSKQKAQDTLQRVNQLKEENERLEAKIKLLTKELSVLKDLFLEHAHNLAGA
T1 sequence 2: T1 sequence 1

Experiment [2] relates to ATF4 + ATF4.
In experiment [3] the test system is T2, DBP + DBP.
T2 sequence 1: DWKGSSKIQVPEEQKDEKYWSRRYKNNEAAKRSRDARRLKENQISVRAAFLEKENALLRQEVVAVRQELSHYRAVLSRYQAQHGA
T2 sequence 2: T2 sequence 1

Experiment [4] relates to T3, FOSL1 + CEBPG.
T3 sequence 1: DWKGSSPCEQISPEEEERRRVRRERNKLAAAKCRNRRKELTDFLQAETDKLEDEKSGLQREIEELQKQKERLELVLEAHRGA
T3 sequence 2: T1 sequence 1

Experiment [5] deals with T4, BATF3 + BATF3.
T4 sequence 1: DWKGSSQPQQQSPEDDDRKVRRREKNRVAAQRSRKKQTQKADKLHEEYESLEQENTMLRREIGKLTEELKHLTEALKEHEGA
T4 sequence 2: T4 sequence 1

Experiment [6] deals with T5, XBP1 + XBP1.
T5 sequence 1: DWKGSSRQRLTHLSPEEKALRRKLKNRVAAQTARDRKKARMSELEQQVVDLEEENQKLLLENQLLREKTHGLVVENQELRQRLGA
T5 sequence 2: T5 sequence 1

Experiment [7] concerns T6, JUNB + ATF3.
T6 sequence 1: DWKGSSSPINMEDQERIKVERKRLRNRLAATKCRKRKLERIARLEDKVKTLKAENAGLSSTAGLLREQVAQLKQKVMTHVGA
T6 sequence 2: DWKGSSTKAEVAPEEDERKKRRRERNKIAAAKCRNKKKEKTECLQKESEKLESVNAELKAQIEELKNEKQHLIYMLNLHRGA

For experiment [8], the system named is JUN + CEBPG.
Experiment [9] relates to CEBPA + CEBPA.
Experiment [10] concerns BATF3 + CEBPA.

As to ATGACGTCAT, the results for the binding signal (relative CSI intensity (max = 1)) in experiment [1], in experiment [2] and in experiment [3] were 0.00362, 1 and 0.0564, respectively.

Take ATGATGCAAT: the binding signal (relative CSI intensity (max = 1)) was 0.498 in experiment [4]; 4.8e-06 in [2]; 0.000211 in [5]; -0.000348 in experiment [6]; 0.000977 in [7].

Regarding CCTGACGTCA, the binding signal (relative CSI intensity (max = 1)) in experiment [8] was -0.0146; in [4] it was 0.000338; in [1] it was 3.15e-05; in experiment [9] it was 0.000206; in experiment [6], 0.000538; in experiment [3], -0.000117.

In the case of ATGACGCAAT, the binding signal (relative CSI intensity (max = 1)) in experiment [2] was found to be 5.92e-05; in experiment [5] it was 0.00125; in [6] it was 0.00105.

For the sequence ATGACGTAAT, the binding signal (relative CSI intensity (max = 1)) in [5] amounted to 0.0127.

ATGACGGAAT: the binding signal (relative CSI intensity (max = 1)) in [10] turned out to be 0.000193; in [4], 0.00045; in experiment [1], 0.000168; in [9], 0.000693; in experiment [2], 1.84e-05; in experiment [5], 0.000176. The binding signal (relative CSI intensity (max = 1)) was -3.67e-05 in experiment [6] and 0.000591 in experiment [3].
